Earlier results in patent publication US5225411A, “Disubstituted polymethyleneimines” (priority 1990, dated 1993).

Conditions: agents used clinically to overcome MDR-type resistance; cited from earlier work

## CCCCc1oc2ccccc2c1C(=O)c1cc(I)c(OCCN(CC)CC)c(I)c1 [AMIODARONE]
  toxicity limiting clinical use: toxicity limits their use considerably
